Test results reported in PMC7819943, “Rice protein-binding microarrays: a tool to detect cis-acting elements near promoter regions in rice”.
The other results are listed elsewhere or left out.

The chains behind the UniProt entries cited, without tags or fusion partners.
UniProt Q0JBA9, entry or part of it: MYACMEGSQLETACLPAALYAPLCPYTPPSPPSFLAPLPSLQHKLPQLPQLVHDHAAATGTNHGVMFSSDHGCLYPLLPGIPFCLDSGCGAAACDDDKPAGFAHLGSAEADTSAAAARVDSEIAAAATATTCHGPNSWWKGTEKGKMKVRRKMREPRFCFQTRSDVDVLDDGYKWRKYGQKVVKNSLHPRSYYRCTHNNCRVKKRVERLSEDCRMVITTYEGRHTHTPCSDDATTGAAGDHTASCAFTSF

target: OsWRKY34 (Oryza sativa, UniProt Q0JBA9 1-250); experiment: protein-binding microarray (RPBM); PBS, 2% BSA, 51.3 ng/ul salmon testes DNA, 50 uM zinc acetate, 200 nM TF, 25 C, 1 h; high values mean tight binding; details: protein: recombinant; tags: N-terminal polyhistidine and DsRed monomer fusion (pET32a); label: CyDye5-dUTP incorporated in the synthesized complementary strand; 3' TTTTT single-stranded linker to array surface; dsDNA, one strand shown
Procedure, shortened: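 A custom Agilent array was converted to double-stranded form by primer extension with Cy5-dUTP and blocked with 2% BSA. Protein at 200 nM in PBS with 2% BSA, salmon testes DNA and 50 µM zinc acetate was applied for 1 h at 25 °C, followed by washing. The proteins were polyhistidine–DsRed N-terminal fusions of transcription factors, expressed in E. coli BL21-CodonPlus and Ni–NTA-purified. The binding signal is per-feature fluorescence intensity (arbitrary units) from an Axon 4000B scanner.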

Sequence | binding signal
TTTCTTGCTGTTCCTACGCCCAATTCGTCCTGATCTGGTTCGGAGTCACCTAGTGCAG | 11700 fluorescence intensity (a.u.)
GCTCTCTCTATCTTTTTTTTTGAGAACTCTCTCTCTCTCTCGGAGTCACCTAGTGCAG | 8170 fluorescence intensity (a.u.)
GCACCTTTCAAATTCATCTGATTTATGCATTCTTCTGTAACGGAGTCACCTAGTGCAG | 8790 fluorescence intensity (a.u.)
TACTCCCTCCGTTTTTTAATAGATGACGCCGTTGACTTTTCGGAGTCACCTAGTGCAG | 16100 fluorescence intensity (a.u.)
AACTTTTGTCATTCTTCATTTGTCATTTCACATGGATCTACGGAGTCACCTAGTGCAG | 8560 fluorescence intensity (a.u.)
TCAGGACATTCTTCTCCATCTTCTCTACTACAGTACTATACGGAGTCACCTAGTGCAG | 9500 fluorescence intensity (a.u.)
GCCCCATCCTACTACTACTCCTACACCCGTCTACTCCACTCGGAGTCACCTAGTGCAG | 12800 fluorescence intensity (a.u.)
ACTGCCATGTCCATTTCTTGTCCTTCATTGTACTACTGCTCGGAGTCACCTAGTGCAG | 15400 fluorescence intensity (a.u.)
ATAACTACTATATGTGGTGCACTAATTCCTCTTTAATTTCCGGAGTCACCTAGTGCAG | 9430 fluorescence intensity (a.u.)
AACCGCTGATCTGGCTTGTGGTATGTGTTTGTGCTCCTCTCGGAGTCACCTAGTGCAG | 10200 fluorescence intensity (a.u.)
GGCACGGCGGGGTGGGAGCTCGGGCGCGAGCCGGTCACCTCGGAGTCACCTAGTGCAG | 8470 fluorescence intensity (a.u.)
TCCACCTACTGGGTCTTACATTCTTCATACTTCATTCATCCGGAGTCACCTAGTGCAG | 10400 fluorescence intensity (a.u.)
TTTTTGCCCCATTCTTGCAGCTTTCTTGCCCATCAAACTGCGGAGTCACCTAGTGCAG | 8940 fluorescence intensity (a.u.)
TTTGTTGTACTAAGAGGGTCAGGTTGGTTTTTTTAAAGATCGGAGTCACCTAGTGCAG | 8300 fluorescence intensity (a.u.)
ACATCAACACACCATCACTCGCACAAAACACACTAATAAACGGAGTCACCTAGTGCAG | 8440 fluorescence intensity (a.u.)
TGAAAAACCGGGGCCCCTTATCCTCGAACCAGGCGCCCTACGGAGTCACCTAGTGCAG | 8710 fluorescence intensity (a.u.)
CGTTTTTTAATAGATGACGCCATTGACTTTTTCTCACATACGGAGTCACCTAGTGCAG | 11000 fluorescence intensity (a.u.)
GTTTGATTTGGTGAGGCGGGCGGTGTGCGCGTGGTGGTCTCGGAGTCACCTAGTGCAG | 8680 fluorescence intensity (a.u.)
CGGCCTCCTCATCCTCACTGCACAAACGTTTTCTCTCCTCCGGAGTCACCTAGTGCAG | 9640 fluorescence intensity (a.u.)
GAAAACTAGCTTTGTCATCATTTCCGCTTCGTTCCGGCTGCGGAGTCACCTAGTGCAG | 8050 fluorescence intensity (a.u.)
CATGCATGTTTTACATCTAGTGTGATTGTCTTAATCTTATCGGAGTCACCTAGTGCAG | 8950 fluorescence intensity (a.u.)

Four records drawn at random from the list so far, as already listed:
Sequence | binding signal
GAAAACTAGCTTTGTCATCATTTCCGCTTCGTTCCGGCTGCGGAGTCACCTAGTGCAG | 8050 fluorescence intensity (a.u.)
AACTTTTGTCATTCTTCATTTGTCATTTCACATGGATCTACGGAGTCACCTAGTGCAG | 8560 fluorescence intensity (a.u.)
CATGCATGTTTTACATCTAGTGTGATTGTCTTAATCTTATCGGAGTCACCTAGTGCAG | 8950 fluorescence intensity (a.u.)
CGTTTTTTAATAGATGACGCCATTGACTTTTTCTCACATACGGAGTCACCTAGTGCAG | 11000 fluorescence intensity (a.u.)

Carrying on.

Sequence | binding signal
TTTGGTGCCCGGCTCCTAATACCTCGCAAGTATCATCTAACGGAGTCACCTAGTGCAG | 8080 fluorescence intensity (a.u.)
GGACGGAGGAGGAGGAGGAGGTGGGCGTGGAGATTGGTAGCGGAGTCACCTAGTGCAG | 8400 fluorescence intensity (a.u.)
GTACATATCCTTGTCGGCGAACCAATGCATTTCCATAGCCCGGAGTCACCTAGTGCAG | 10300 fluorescence intensity (a.u.)
CATCTCAGGACAAAGTCTTCTATATACGGCCAACTCTATCCGGAGTCACCTAGTGCAG | 8040 fluorescence intensity (a.u.)
TTGTTACTGTTTGGTACTTCTATTTCCTGTCCACTTTCTTCGGAGTCACCTAGTGCAG | 11700 fluorescence intensity (a.u.)
GTAATCGCATCTGCCCATGGCGACCCCGGTCTCCTCCGCGCGGAGTCACCTAGTGCAG | 8620 fluorescence intensity (a.u.)
AGCACCTACGGCGGCGTCTTCTCCTACTGCCTACCGCCGACGGAGTCACCTAGTGCAG | 9000 fluorescence intensity (a.u.)
GCTTTCTTTCGATGCAACAATCCCCTTTTGTTGACTTACCCGGAGTCACCTAGTGCAG | 8280 fluorescence intensity (a.u.)
TCATCAACCGTGCCACGGTGCCGATCGATCAGCGACACAACGGAGTCACCTAGTGCAG | 8720 fluorescence intensity (a.u.)
CCAGCACGTTAGCCGATATTAATCATATCCCTGTTCCAACCGGAGTCACCTAGTGCAG | 8740 fluorescence intensity (a.u.)
TTCCTCGTTCAAAATTCTTCTACTTCATATGGCCTGTTTACGGAGTCACCTAGTGCAG | 10300 fluorescence intensity (a.u.)
TATTTCCTCTGCATTAAGTCATCTCCTTTCCTTTTTTTTTCGGAGTCACCTAGTGCAG | 10200 fluorescence intensity (a.u.)
TGTCGCATCTGTTTCCGCTCCTGCTCATAGCGCTGATACTCGGAGTCACCTAGTGCAG | 8310 fluorescence intensity (a.u.)
AGAGCCGTAGACAAACGTCGATCGATCCTCGGTTCCAGCTCGGAGTCACCTAGTGCAG | 8570 fluorescence intensity (a.u.)
ATCTGTGTTGTTTTCGGTGTGTTTCTCCGGCTGGGGATGACGGAGTCACCTAGTGCAG | 10200 fluorescence intensity (a.u.)
ACAGTACGCTACTATTCATACGCTAAATTTGTCTTTTTTACGGAGTCACCTAGTGCAG | 9830 fluorescence intensity (a.u.)
TTTATTTTGTTGTTCCTTTAGTTGTGGACTACTTGAGTCTCGGAGTCACCTAGTGCAG | 8280 fluorescence intensity (a.u.)
ATATCAGCTGCCCATTGTCCATATCTTCTTGGTTGTTGCCCGGAGTCACCTAGTGCAG | 10300 fluorescence intensity (a.u.)
CATTTTCTTTCTTCTTCCTTATCCTTTTCTCTCTTTCTCACGGAGTCACCTAGTGCAG | 9410 fluorescence intensity (a.u.)
CCTCTCTTGATTGTGTTGTGCAGTTTGTTTGTGTAGTGGACGGAGTCACCTAGTGCAG | 10300 fluorescence intensity (a.u.)
TTTCTTCCCACCATGGTCGCTTATGTAGCGACATCCCCGTCGGAGTCACCTAGTGCAG | 8730 fluorescence intensity (a.u.)

Look-ups from the entries so far.
binding signal, TTTCTTCCCACCATGGTCGCTTATGTAGCGACATCCCCGTCGGAGTCACCTAGTGCAG is entered as 8730 fluorescence intensity (a.u.)
binding signal, TTTGGTGCCCGGCTCCTAATACCTCGCAAGTATCATCTAACGGAGTCACCTAGTGCAG is entered as 8080 fluorescence intensity (a.u.)

Additional results follow.

Sequence | binding signal
CGTAAATTTCACTCGCTGTTGCCCTATCCTTAGCCGTTGACGGAGTCACCTAGTGCAG | 10500 fluorescence intensity (a.u.)
GGCTGGTGCTGGAAGGGTGGGCGCTGCAATGGTACATGTGCGGAGTCACCTAGTGCAG | 9350 fluorescence intensity (a.u.)
ACGTTTTATTTTAGCCCGGCCTCTTTTTCTCCGTCACCCGCGGAGTCACCTAGTGCAG | 10100 fluorescence intensity (a.u.)
GTACCAGGTGGCCCGATTCTCTCGTACCAATTTCCACCAGCGGAGTCACCTAGTGCAG | 8400 fluorescence intensity (a.u.)
CTGGCCATCTCTTCCGCGCCCAGATGAAGCAGTTACACACCGGAGTCACCTAGTGCAG | 8780 fluorescence intensity (a.u.)
TTTAACGTCACCTTTCTCGTTTGCTGCTCATTTTGCTTACCGGAGTCACCTAGTGCAG | 13500 fluorescence intensity (a.u.)
AACCTAAAAAAACCACCACCACCCACGCAACACAAACACACGGAGTCACCTAGTGCAG | 8430 fluorescence intensity (a.u.)
GCTCTATCCAATCTCCCACATCAGCCACACCATCAAAAGCCGGAGTCACCTAGTGCAG | 8920 fluorescence intensity (a.u.)
GCCGCCTCGCTTCCACTTCCTCTCCTCTCCCCTCGACACACGGAGTCACCTAGTGCAG | 8090 fluorescence intensity (a.u.)
TTTGCTTTGCGCACGGTGATTTCGCCCTTGTCCCGGTCGACGGAGTCACCTAGTGCAG | 8730 fluorescence intensity (a.u.)
GATCTCGCCTGCCCCTCCGCACCAGCCCTCGCGACTCATGCGGAGTCACCTAGTGCAG | 8420 fluorescence intensity (a.u.)
TACTGATTCTTTTTTCAAATTCCAGACACACATAGCCACTCGGAGTCACCTAGTGCAG | 8910 fluorescence intensity (a.u.)
GTTCTCCTATACAACTCCACTTGTCATTAGTCATGCACTGCGGAGTCACCTAGTGCAG | 9940 fluorescence intensity (a.u.)
TTGTACTCTTACAACCGCCGTCTTCATTCCAGTAAGCTATCGGAGTCACCTAGTGCAG | 14000 fluorescence intensity (a.u.)
TAAACCCACGGCGATCTCCTCCTATATTTCCTCCGGTCGCCGGAGTCACCTAGTGCAG | 8520 fluorescence intensity (a.u.)
GTTTAATGGTAGTGCATGGGTTGTGATTATTTCCTACCATCGGAGTCACCTAGTGCAG | 8730 fluorescence intensity (a.u.)
TGCTTATGGACTACTTTTACACTACATTGTGGATGCCCTACGGAGTCACCTAGTGCAG | 10100 fluorescence intensity (a.u.)
TAACCCTAGCTTGCTGTCGCCGCCGCCGCCGTCCATCGCCCGGAGTCACCTAGTGCAG | 11300 fluorescence intensity (a.u.)
ACGATACTATTAGTCCCCGCCATTATCTAGCCCATGCGAACGGAGTCACCTAGTGCAG | 8640 fluorescence intensity (a.u.)
TAATCTAACCCCATGTTAATGCTAGTAGCACTTTGATTTGCGGAGTCACCTAGTGCAG | 10800 fluorescence intensity (a.u.)
TACAACTTTGTTGTTGTTGACTTTTTCAGTTGAAATTATTCGGAGTCACCTAGTGCAG | 10800 fluorescence intensity (a.u.)

Sequence | binding signal
TTTTAATAGTTGACTCTCCCATGTTCTCTCAAACGTAAGCCGGAGTCACCTAGTGCAG | 9240 fluorescence intensity (a.u.)
CATCCAACCATCACACACAGTTAGCATATCAGTAGTCGTTCGGAGTCACCTAGTGCAG | 8210 fluorescence intensity (a.u.)
CTTTCGCCTCAGAGTCCCATCCAACCACCGCGTCCACGAACGGAGTCACCTAGTGCAG | 9920 fluorescence intensity (a.u.)
TGACAAAACCGATGACCTCTGCTATTTGGACCGAAGCAAACGGAGTCACCTAGTGCAG | 8960 fluorescence intensity (a.u.)
TGCCTTCTGATTCTGGATCCCTGATGTTATATGTGTGCACCGGAGTCACCTAGTGCAG | 9310 fluorescence intensity (a.u.)
CTTTCCTACACACATAAACTTTCAATTTTTCCGTCGCATCCGGAGTCACCTAGTGCAG | 8490 fluorescence intensity (a.u.)
ACCTGCTGCATTCCTTCTGTTGATTTTGATTCGCTCAACCCGGAGTCACCTAGTGCAG | 8460 fluorescence intensity (a.u.)
TTTTCTATCACATCAAAATTTTCCTAGGCTGTGTTTAGTTCGGAGTCACCTAGTGCAG | 8550 fluorescence intensity (a.u.)
GCATACTCGCTCCATTTCATATACTTTTTTTTAGTTTAACCGGAGTCACCTAGTGCAG | 9420 fluorescence intensity (a.u.)
GTACTGTCATAATATCATAAACTTATACACATATACAGATCGGAGTCACCTAGTGCAG | 8580 fluorescence intensity (a.u.)
GTTTTGTGTACTTCTTCCGTCCTAAAATATAGCAACTTTTCGGAGTCACCTAGTGCAG | 11900 fluorescence intensity (a.u.)
TGACCACACATTGCATCCGTCACCACCTTCTTCTAATTAACGGAGTCACCTAGTGCAG | 9320 fluorescence intensity (a.u.)
CGGCTAAACTCCCACGTGAACCAGACGCTGCACCAAAAACCGGAGTCACCTAGTGCAG | 8430 fluorescence intensity (a.u.)
CCACTTTAGATCCCAAATTATATATGGTCGAGTTCTTTTCCGGAGTCACCTAGTGCAG | 9470 fluorescence intensity (a.u.)
ATTGCTCTTCTGCACCATCAGCATCTCCTGCACCGCCGCGCGGAGTCACCTAGTGCAG | 8340 fluorescence intensity (a.u.)
TCACGTATAGCCAGCGACAATATAAGCGTTCATTCACACTCGGAGTCACCTAGTGCAG | 8060 fluorescence intensity (a.u.)
CATTGGTTACTCGCTAGTAGTTTAATTTTTTTTTCCGGAACGGAGTCACCTAGTGCAG | 8470 fluorescence intensity (a.u.)
CTGTCACTCACTCACTCACCCGTTATTACATGGTTACAACCGGAGTCACCTAGTGCAG | 9950 fluorescence intensity (a.u.)
AACCAGCACCGATGTCGATTTCTGTAGTTCCCTTTGTTAACGGAGTCACCTAGTGCAG | 9960 fluorescence intensity (a.u.)
TTTTGCCATATTTGTCACATCTGTTCACGCTGGATTTAAACGGAGTCACCTAGTGCAG | 10100 fluorescence intensity (a.u.)
GATCCCCTTGCCTATGACTTTTGTAAATTTGAAAATTGTTCGGAGTCACCTAGTGCAG | 8040 fluorescence intensity (a.u.)
